Data as given in PubChem BioAssay AID1259424 (University of Nebraska Medical Center, 2018).
Test: 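Rank knockdowns across the genome by resemblance to the KSR1 depletion profile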 (primary screen). Cell system: human HCT116 colon cancer cells. Knock-down reagent: siRNA pool against human genes, 50 nM. Measurement: 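Six signature mRNAs by branched-DNA multiplex assay, scaled to two housekeeping genes and non-targeting median, log2; matched to mean KSR1 knockdown profile by Pearson correlation and euclidean distance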. Reading the numbers: mean correlation with KSR1 profile and KSR1 correlation: higher = expression change more like KSR1 knockdown; mean distance from KSR1 profile: higher = expression change less like KSR1 knockdown.
This is one part, drawn at random, of about 14,000 deposited reagents. 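Higher correlation or smaller distance means closer resemblance to KSR1 loss; control wells, including KSR1 knockdowns, recur on many plates.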 Further read-outs or replicates are left out here. Not stated in the record: the time to read-out.

no.	Gene	mean correlation with KSR1 profile	mean distance from KSR1 profile	KSR1 correlation, replicate 1
1	IL12A	0.121	1.8	0.161
2	NME7	-0.179	2.94	0.0951
3	MYBPC2	0.0988	3.12	0.218
4	CELSR3	0.33	3.48	0.363
5	PPM1H	-0.495	2.33	-0.402
6	RSRC1	-0.0844	2.78	-0.201
7	ACTR8	-0.267	1.76	-0.225
8	RBBP9	-0.298	2.57	-0.428
9	MBOAT7	0.235	3.84	0.193
10	ARFGEF2	-0.13	2.71	-0.12
11	STK26	-0.185	2.14	-0.0127
12	ANKMY2	-0.161	3.45	-0.293
13	PTPN5	0.642	1.84	0.784
14	IRF2BP1	-0.727	2.33	-0.611
15	SLC22A17	-0.654	1.67	-0.814
16	CDC42	-0.742	2.17	-0.678
17	SLC24A1	-0.277	1.94	-0.27
18	LSP1	0.439	2.41	0.519
19	DNAJC11	0.372	1.43	0.226
20	UQCR10	0.807	2.47	0.734
21	PSMF1	0.0387	4.33	0.0382
22	TLK2	-0.686	2.34	-0.607
23	PRR7	0.358	1.71	0.359
24	HMG20A	0.428	2.18	0.486
25	CD24	-0.693	2.87	-0.694
26	NSMAF	-0.485	1.42	-0.663
27	FOXB1	0.249	3.04	-0.208
28	ZRANB3	0.932	0.649	0.886
29	APOC1	0.882	0.998	0.857
30	TUBB4A	0.404	1.74	0.227
31	ARID1B	-0.807	2.71	-0.884
32	ZNF148	0.206	2.33	0.452
33	GAGE4	-0.0712	1.95	-0.265
34	ABCA7	0.339	1.49	0.299

A portion from the list above:
no.	Gene	mean correlation with KSR1 profile	mean distance from KSR1 profile	KSR1 correlation, replicate 1
6	RSRC1	-0.0844	2.78	-0.201
7	ACTR8	-0.267	1.76	-0.225
8	RBBP9	-0.298	2.57	-0.428
9	MBOAT7	0.235	3.84	0.193
